Data reported in patent US7105527B2, “N4-acylcytosine nucleosides for treatment of viral infections” (priority 2001, dated 2006).
At least one structure is not confirmed: it was looked up by name or label, or the drawing left a doubt.

Tested on: MT-2 cells
Assay: Cytotoxicity assay in MT-2 cells
Type: cell-based
Settings: Table 1, read-out: Cytotoxicity in different cells (IC50, μM) MT-2
Method: The toxicity of the compounds was assessed in Vero, human PBM, CEM (human lymphoblastoid), MT-2, and HepG2 cells, as described previously (Schinazi […]., Cannon D. L., Xie […]., Smith […]. […] Cycloheximide was included as positive cytotoxic control, and untreated cells exposed to solvent were included as negative controls. The cytotoxicity IC50 was obtained from the concentration-response curve using the median effective method described previously (Chou […]. […] Belen'kii M. S. & Schinazi R. F.

CC(C)(C)c1ccc(C(=O)Nc2nc(=O)n([C@H]3CC[C@@H](CO)O3)cc2F)cc1 [Compound 28, β-D-N^4-(4-tert-Butylbenzoyl)-2,3′-dideoxy-5-fluorocytidine]
IC50: 50 µM
